Some entries share one result that the patent states for a list of compounds.
Test system: human skin warts
Experiment: topical treatment of human skin warts
Assay type: in vivo
Conditions: relative to crude methanol extract of Tecoma stans leaves
Method: Initial steps involved extracting Tecoma stans leaves with methanol or ethanol alcohol. Then, the extract was obtained via evaporating the alcohol and re-suspending the dry matter in pure DMSO (dimethylsulphoxide) at a concentration of 20 mg/mL DMSO. […] As disclosed herein, 14 compounds have been isolated from dry leaves of Tecoma stans, four of which are known for their antidiabetic effect and ability to reduce the glycemic index. After identifying the 14 compounds in the methanolic extract from the dry leaves, each compound was independently tested on human skin warts. […] Therefore, corosolic acid was mixed with its two related compounds, namely oleanolic acid (FIG. 1E) and ursolic acid (FIG. 1F), isolated from the same extract. Compositions containing a mixture of these three compounds were prepared by mixing the compounds in an ointment at a concentration of 1 mg/gm of each compound per a total weight of the ointment, emulsifying the compounds in a lotion base at a concentration of 0.1 mg/mL of each compound per a total volume of the lotion, or suspending three compounds together in DMSO at a concentration of 1 mg/mL of each compound per a total volume of DMSO. The compositions were applied topically twice a day to the desired skin area as indicated in each case (see FIGS. 3[…]).

Row | Compound | anti-wart activity / effectiveness rate as share of the crude methanol extract [%]
1 | C[C@H]1[C@H](C)CC[C@]2(C(=O)O)CC[C@]3(C)C(=CC[C@@H]4[C@@]5(C)C[C@@H](O)[C@H](O)C(C)(C)[C@@H]5CC[C@]43C)[C@H]12 [corosolic acid, (2α,3β)-2,3-dihydroxyurs-12-en-28-oic acid] | ≤ 10
2 | C[C@H]1[C@H](C)CC[C@]2(C(=O)O)CC[C@]3(C)C(=CC[C@@H]4[C@@]5(C)CC[C@H](O)C(C)(C)[C@@H]5CC[C@]43C)[C@H]12 [ursolic acid, 3β-Hydroxy-12-ursen-28-ic acid] | ≤ 10
